Values from PubChem BioAssay AID504786 (Drosophila RNAi Screening Center, 2011).
In all, the deposit lists about 21,000 reagents; this is a random part of those with a known target gene and a result. 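Primary screen; positive scores mean lost reporter signal, so the sign may be inverted from the usual convention.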 The numbers tell different reagents against one gene apart.

Test: 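Knock-downs reducing HIF reporter induction by the iron chelator DFO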 (primary screen)
System: Drosophila S2 cells with a stable HIF luciferase reporter
Knock-down reagent: long dsRNA against Drosophila genes, about 0.2 µg dsRNA per well of a 384-well plate
Timing: three days of knock-down, then 20 h of DFO before reading
Treatment: desferrioxamine (DFO) at 100 µM, an iron chelator that mimics hypoxia, for 20 h
Measurement: 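Firefly luciferase driven by the mouse ldh-a hypoxia-response element, measured after 20 h of 100 µM DFO; z-scores per plate, higher means more signal lost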
Scale: z-score: higher = stronger loss of HIF reporter signal

Sema2a (Semaphorin 2a) → z-score, replicate 1 = -0.2; z-score, replicate 2 = -0.6
Nepl5 (Neprilysin-like 5) → z-score, replicate 1 = -0.3; z-score, replicate 2 = -0.5
squ (squash) → z-score, replicate 1 = -0.4; z-score, replicate 2 = 0.3
Rab1 → z-score, replicate 1 = 1.2; z-score, replicate 2 = 0.7
Pli (Pellino) → z-score, replicate 1 = -0.1; z-score, replicate 2 = -0.4
CG32365 #1 → z-score, replicate 1 = -0.2; z-score, replicate 2 = -0.2
CG32365 #2 → z-score, replicate 1 = 4.7; z-score, replicate 2 = 3.7
CG32365 #3 → z-score, replicate 1 = 2.1; z-score, replicate 2 = 1.8
Spt7 → z-score, replicate 1 = 0.5; z-score, replicate 2 = -0.1
Dark (Death-associated APAF1-related killer) → z-score, replicate 1 = -0.3; z-score, replicate 2 = -0.3
CG4281 → z-score, replicate 1 = -0.3; z-score, replicate 2 = 0.3
CG15141 #1 → z-score, replicate 1 = 0; z-score, replicate 2 = -0.2
CG15141 #2 → z-score, replicate 1 = 0.1; z-score, replicate 2 = 0
CG5693 → z-score, replicate 1 = -0.3; z-score, replicate 2 = -0.3
CG31178 → z-score, replicate 1 = -0.1; z-score, replicate 2 = 0.1
DNAlig3 (DNA ligase 3) → z-score, replicate 1 = -0.3; z-score, replicate 2 = -0.5
rdgB (retinal degeneration B) → z-score, replicate 1 = -1.2; z-score, replicate 2 = -0.2
Sptz (Spastizin) → z-score, replicate 1 = -0.2; z-score, replicate 2 = -0.4
CG33223 → z-score, replicate 1 = -0.4; z-score, replicate 2 = -0.3
Con (Connectin) → z-score, replicate 1 = -0.3; z-score, replicate 2 = -0.1
CG17290 → z-score, replicate 1 = -0.3; z-score, replicate 2 = -0.5
Sol1 #1 → z-score, replicate 1 = -0.2; z-score, replicate 2 = -0.2
Sol1 #2 → z-score, replicate 1 = -0.3; z-score, replicate 2 = -0.4
Sol1 #3 → z-score, replicate 1 = -0.3; z-score, replicate 2 = -0.5
Gr77a (Gustatory receptor 77a) → z-score, replicate 1 = 0.1; z-score, replicate 2 = 1.5
Ldaf1 (Lipid droplet assembly factor 1) → z-score, replicate 1 = -0.2; z-score, replicate 2 = -0.4
PH4alphaSG1 (prolyl-4-hydroxylase-alpha SG1) → z-score, replicate 1 = -0.5; z-score, replicate 2 = -0.5

Not a retest: 2 of the entries above.
CG4281 → z-score, replicate 1 = -0.3; z-score, replicate 2 = 0.3
CG15141 #1 → z-score, replicate 1 = 0; z-score, replicate 2 = -0.2
